Measurements: the supplement of paper PMC6289059
Values joined by “and” are separate entries in the source; they are usually repeats but may differ in a detail not shown here. Identical values can stand only once. Some of the results follow. Many values rest on one well or one pass, so single values are uncertain.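 The cells are hepatocyte-like cells grown from human stem cells in which the DGUOK gene was disrupted by CRISPR, a model of liver mtDNA depletion syndrome. Each well's ATP signal was scored against the other wells on its plate, and a drug counted as a primary hit when its score was 3 or higher.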

Each molecule was assayed on DGUOK Δ14/Δ5 iPSC-derived hepatocyte-like cells (SV20) (assay: ATP level (CellTiter-Glo luminescence) Z score relative to plate distribution, under 2-DG glycolysis block; higher = more cellular ATP (rescue of mitochondrial ATP production)). Conditions: 5 µM; treatment time: day 15 to day 20 of differentiation (5 days); 2-deoxy-D-glucose: 20 mM for 24 h before assay.

SMILES | ATP level
CCC1(CC)C(=O)NC(=O)NC1=O | inactive: 0.427
CC([C@H](O)c1ccccc1)N(C)C (some centres not stated) | inactive: -0.549
Cc1ncc(C[n+]2csc(CCO)c2C)c(=O)[nH]1 | inactive: 0.659
COc1ccc(OC)c(C(O)C(C)N)c1 (configuration not stated) | inactive: -0.315
CCC(=O)O[C@H]1CC[C@H]2[C@@H]3CCC4=CC(=O)CC[C@]4(C)[C@H]3CC[C@]12C | inactive: -1.37
O=C1C(Cl)=C(Cl)C(=O)C(Cl)=C1Cl | inactive: 0.987
C[C@@H]1CC[C@]2(NC1)O[C@H]1C[C@H]3[C@@H]4CC=C5C[C@@H](O)CC[C@]5(C)[C@H]4CC[C@]3(C)[C@H]1[C@@H]2C | inactive: -1.09
C=CCC1(C(C)CCC)C(=O)NC(=S)NC1=O (configuration not stated) | active: 5.84
CCCCCCCCCCCCCCCC[n+]1ccccc1 | inactive: -14.7
c1ccc(/N=N/c2ccccc2)cc1 | inactive: -5.81
CC(=O)O[C@@H]1CC[C@@]2(C)[C@@H](CC[C@@H]3[C@@H]2CC[C@]2(C)C(=O)CC[C@@H]32)C1 | inactive: 0.0594
COP(=S)(OC)Oc1ccc(Sc2ccc(OP(=S)(OC)OC)cc2)cc1 | inactive: 0.661
CCOP(=S)(OCC)Oc1nc(Cl)c(Cl)cc1Cl | inactive: -0.251
c1ccc2c(c1)sc1ccccc12 | inactive: 0.493
O=P1(N(CCCl)CCCl)NCCCO1 (configuration not stated) | inactive: 1.15
CN1C(=O)CCS(=O)(=O)C1c1ccc(Cl)cc1 (configuration not stated) | inactive: 1.05
CN(C)[C@@H]1C(=O)C(C(N)=O)=C(O)[C@@]2(O)C(=O)C3=C(O)c4c(O)cccc4[C@@](C)(O)[C@H]3[C@H](O)[C@@H]12 | inactive: -1.78
CC(=O)NC1CCSC1=O (configuration not stated) | inactive: -0.545
O=C(NC(O)C(Cl)(Cl)Cl)NC(O)C(Cl)(Cl)Cl (configuration not stated) | inactive: 1.93
CNC(=O)Oc1ccccc1OC(C)C | inactive: 1.43
O=C(O)Cc1cnc[nH]1 | inactive: -2.23

SMILES | ATP level
COc1cc([C@@H]2c3cc4c(cc3[C@H](OC(C)=O)[C@H]3COC(=O)[C@@H]23)OCO4)cc(OC)c1OC | inactive: 1.49
CCOP(=S)(OCC)Oc1ccc2c(C)c(Cl)c(=O)oc2c1 | inactive: -0.347
CC1CC(Cl)CCC1C(=O)OC(C)(C)C (configuration not stated) | inactive: -0.926
COc1ccccc1N1CCNCC1 | inactive: -1.64
CCOc1cc(C=O)ccc1O | inactive: 0.76
COc1ccc(C(CN(C)C)C2(O)CCCCC2)cc1 (configuration not stated) | inactive: -0.793
C[C@H](N)[C@H](O)c1ccccc1 | inactive: -1.83
CNC(=O)Oc1ccc2c(c1)[C@]1(C)CCN(C)[C@@H]1N2C | inactive: -0.669
CN1[C@H]2C[C@H](OC(=O)[C@H](CO)c3ccccc3)C[C@@H]1[C@@H](O)C2 | inactive: 0.603
CN(C)C(=O)Oc1cccc([N+](C)(C)C)c1 | inactive: -0.0689 and inactive: 0.83
CC1(C)C2CC(=O)[C@]3(C)C(CC[C@@]4(C)[C@H](c5ccoc5)OC(=O)[C@H]5O[C@]543)[C@@]2(C)C(=O)C[C@H]1O (some centres not stated) | inactive: 0.729
COc1ccc(C(=O)O)cc1OC | inactive: 1.53
NCC(=O)c1ccccc1 | inactive: 0.932
O=c1c(O)c(-c2ccc(O)c(O)c2)oc2c(O)c(O)cc(O)c12 | inactive: 1.7
CN1CCc2cc3c(cc2C1O)OCO3 (configuration not stated) | inactive: -6.07
CNCC(O)c1ccc(O)cc1 (configuration not stated) | inactive: 1.43
CN[C@@H]1[C@@H](O)[C@@H](O[C@@H]2[C@@H](O)[C@H](O[C@H]3O[C@H]([C@@H](C)O)[C@@H](O)[C@H](O)[C@H]3N)[C@@H](N)C[C@H]2N)OC[C@]1(C)O | inactive: -0.0819
CC(C)C[C@H]1C(=O)N2CCC[C@H]2[C@]2(O)O[C@](NC(=O)[C@@H]3C=C4c5cccc6[nH]c(Br)c(c56)C[C@H]4N(C)C3)(C(C)C)C(=O)N12 | inactive: 0.205
CN1[C@@H]2CC[C@H]1C[C@@H](OC(=O)C(CO)c1ccccc1)C2 (some centres not stated) | inactive: -0.595
CNC(C)(C)Cc1ccccc1 | inactive: -0.576
CCOP(=S)(OCC)Oc1cc(C)nc(C(C)C)n1 | inactive: 0.788
